The test addresses AlgXPa^C-VSV-G (Pseudomonas aeruginosa PAO1) (UniProt Q51372). The experiment in a line: affinity purification with mass spectrometry.

The chains behind the UniProt entries cited, without tags or fusion partners. Residues count along the entry.
UniProt Q51372, residues 27-474: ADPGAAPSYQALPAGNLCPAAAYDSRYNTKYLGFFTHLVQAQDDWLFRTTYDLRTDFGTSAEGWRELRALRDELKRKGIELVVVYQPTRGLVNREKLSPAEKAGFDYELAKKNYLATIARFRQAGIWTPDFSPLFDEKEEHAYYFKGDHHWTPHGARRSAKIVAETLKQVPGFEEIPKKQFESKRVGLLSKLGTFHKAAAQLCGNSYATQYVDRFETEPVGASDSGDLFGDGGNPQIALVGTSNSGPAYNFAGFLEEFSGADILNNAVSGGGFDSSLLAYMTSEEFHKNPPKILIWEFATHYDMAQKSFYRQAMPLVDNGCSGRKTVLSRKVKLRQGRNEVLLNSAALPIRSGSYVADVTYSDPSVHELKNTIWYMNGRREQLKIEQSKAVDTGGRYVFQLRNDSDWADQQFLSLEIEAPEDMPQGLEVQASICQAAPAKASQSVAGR

Results are given in words; binding and its absence hold for the method and conditions named. In cells and extracts the contact can be indirect. A yes stands for co-enrichment or nearness to the bait. Other partners may have been found. Sequences can lack the tags named with a protein.

B1: AlgFPa (protein, UniProt Q06062 29-216)
chain: DEGALYGPQAPKGSAFVRAYNAGNSELDVSVGSTSLNDVAPLGSSDFKFLPPGSYTAQVGQQSLPVKLDPDSYYTLVSQPGGKPQLVAEPPFKNKQKALVRVQNLSGSKLTLKTADGKTDVVKDVGPQSHGDREINPVKVNLALFDGSKKVSDLKPVTLARGEVVCLYVTGSGGKLAPVWVKRPVKAD
Turning to B1, the binding entry is “binds”.

B2: AlgKPa (protein, UniProt P96956 28-475)
chain: CAGLPDQRLAQEALERGDLATAQSNYQALAAMGYADAQVGLADMQVASGDSAQQAKAEKLYREAAQTSPRARARLGKWLAAKPGASDAEHREAERLLSQAFEQGEDSALVPLIVLYLQYPQSWPEIDPQQRIDQWRARGLPQADLAQIILYRTQGTYAQHLGEIEQVCQRWLRRMDVCWYELATVYQMQGNAEKQKVLLEQLRAAYKAGRVPGERVDSVAGVLADGELGQPDPQTAQALLEEIAPSYPAAWVSLAKLLYDYPDQGDLEKMLGYLKNAQDAAQPRAELLLGRLYYDGKWAPQDPRKAERHLLKAAASEPQANYYLGQIYRRGFLGKVYPQKAVDHLILAARAGQASADMALAQLWSQGRGIQPNRVNAYVFGQLAVQQQVPQASDLLGQIEAQLPPAERSQAQQLLKREQQSRGNNWQATVSLLQSQDSPINEEEPESL
Take B2: the binding entry is recorded as “binds”.

The record behind these values is article PMC10641220, “Pseudomonas aeruginosa AlgF is a protein–protein interaction mediator required for acetylation of the alginate exopolysaccharide” (The Journal of Biological Chemistry, 2023).
